Measured values reported in US20060099643A1, “Method for determining the regulation of xenobiotic removal” (priority 2002, published 2006).
Results are given in words; binding and its absence hold for the method and conditions named. Some entries that bind do so weakly or less than the wild type.

Amino acid sequences for entries named in this document (tags omitted). A change or cut given only in a name is not applied to a line headed by its entry.
UniProt Q15788: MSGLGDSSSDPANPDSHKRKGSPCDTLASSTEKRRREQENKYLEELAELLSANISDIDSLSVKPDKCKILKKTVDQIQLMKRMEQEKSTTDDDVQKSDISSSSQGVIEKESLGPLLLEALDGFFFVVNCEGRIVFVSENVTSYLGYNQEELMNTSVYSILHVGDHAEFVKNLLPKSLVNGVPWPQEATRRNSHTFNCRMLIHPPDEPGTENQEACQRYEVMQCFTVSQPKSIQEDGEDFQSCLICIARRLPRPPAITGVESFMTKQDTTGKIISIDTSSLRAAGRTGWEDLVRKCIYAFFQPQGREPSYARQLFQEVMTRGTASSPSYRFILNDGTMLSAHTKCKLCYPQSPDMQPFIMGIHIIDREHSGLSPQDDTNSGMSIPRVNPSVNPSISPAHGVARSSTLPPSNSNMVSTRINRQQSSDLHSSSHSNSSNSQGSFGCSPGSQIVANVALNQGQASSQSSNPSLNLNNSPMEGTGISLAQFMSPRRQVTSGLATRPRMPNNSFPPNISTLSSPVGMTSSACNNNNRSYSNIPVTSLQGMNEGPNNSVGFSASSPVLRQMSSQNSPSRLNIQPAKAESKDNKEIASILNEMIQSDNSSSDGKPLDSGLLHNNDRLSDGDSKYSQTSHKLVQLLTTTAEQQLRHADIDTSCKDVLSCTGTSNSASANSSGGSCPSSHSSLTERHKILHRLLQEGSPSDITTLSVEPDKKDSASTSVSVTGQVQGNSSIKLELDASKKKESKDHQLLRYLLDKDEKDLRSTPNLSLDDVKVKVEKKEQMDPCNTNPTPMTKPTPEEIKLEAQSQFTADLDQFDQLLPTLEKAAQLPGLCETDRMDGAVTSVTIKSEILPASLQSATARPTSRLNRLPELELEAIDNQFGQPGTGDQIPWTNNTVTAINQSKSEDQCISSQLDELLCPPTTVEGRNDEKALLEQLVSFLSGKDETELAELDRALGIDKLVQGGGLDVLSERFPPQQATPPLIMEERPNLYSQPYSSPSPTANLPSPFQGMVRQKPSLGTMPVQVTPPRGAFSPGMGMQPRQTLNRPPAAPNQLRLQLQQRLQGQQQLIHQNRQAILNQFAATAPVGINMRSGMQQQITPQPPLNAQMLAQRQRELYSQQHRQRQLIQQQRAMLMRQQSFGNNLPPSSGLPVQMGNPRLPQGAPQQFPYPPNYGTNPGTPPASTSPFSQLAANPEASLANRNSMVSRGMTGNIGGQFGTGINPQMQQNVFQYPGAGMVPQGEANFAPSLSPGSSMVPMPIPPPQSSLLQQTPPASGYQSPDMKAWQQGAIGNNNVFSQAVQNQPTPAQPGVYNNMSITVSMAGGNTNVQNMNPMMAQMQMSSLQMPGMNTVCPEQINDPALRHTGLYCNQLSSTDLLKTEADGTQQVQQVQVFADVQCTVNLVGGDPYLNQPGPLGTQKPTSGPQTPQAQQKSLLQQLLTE

Target: T1, SXR (UniProt O75469 130-434, limits assumed)
T1 construct: also called steroid and xenobiotic receptor; steroid X receptor
T1 sequence (looked up): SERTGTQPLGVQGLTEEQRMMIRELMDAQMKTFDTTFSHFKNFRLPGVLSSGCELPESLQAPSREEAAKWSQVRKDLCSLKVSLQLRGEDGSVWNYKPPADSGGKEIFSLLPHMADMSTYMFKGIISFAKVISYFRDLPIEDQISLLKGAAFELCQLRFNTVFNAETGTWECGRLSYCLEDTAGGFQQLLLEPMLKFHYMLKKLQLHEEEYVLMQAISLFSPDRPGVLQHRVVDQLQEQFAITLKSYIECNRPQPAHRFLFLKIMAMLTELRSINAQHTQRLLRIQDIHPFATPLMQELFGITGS
Test: Thermofluor thermal shift; SXR with and without ligands

binding: binds
Binder: LTERHKILHRLLQEGSPSD (peptide, UniProt Q15788 683-701, looked up, Peptide fragment of SRC-1) [co-activator peptide SRC1-NR2]
